In the supplement of paper PMC10849652:
Some of the results follow.

Amino acid sequences for entries named in this document (tags omitted). A change or cut given only in a name is not applied to a line headed by its entry.
UniProt Q9BYX2: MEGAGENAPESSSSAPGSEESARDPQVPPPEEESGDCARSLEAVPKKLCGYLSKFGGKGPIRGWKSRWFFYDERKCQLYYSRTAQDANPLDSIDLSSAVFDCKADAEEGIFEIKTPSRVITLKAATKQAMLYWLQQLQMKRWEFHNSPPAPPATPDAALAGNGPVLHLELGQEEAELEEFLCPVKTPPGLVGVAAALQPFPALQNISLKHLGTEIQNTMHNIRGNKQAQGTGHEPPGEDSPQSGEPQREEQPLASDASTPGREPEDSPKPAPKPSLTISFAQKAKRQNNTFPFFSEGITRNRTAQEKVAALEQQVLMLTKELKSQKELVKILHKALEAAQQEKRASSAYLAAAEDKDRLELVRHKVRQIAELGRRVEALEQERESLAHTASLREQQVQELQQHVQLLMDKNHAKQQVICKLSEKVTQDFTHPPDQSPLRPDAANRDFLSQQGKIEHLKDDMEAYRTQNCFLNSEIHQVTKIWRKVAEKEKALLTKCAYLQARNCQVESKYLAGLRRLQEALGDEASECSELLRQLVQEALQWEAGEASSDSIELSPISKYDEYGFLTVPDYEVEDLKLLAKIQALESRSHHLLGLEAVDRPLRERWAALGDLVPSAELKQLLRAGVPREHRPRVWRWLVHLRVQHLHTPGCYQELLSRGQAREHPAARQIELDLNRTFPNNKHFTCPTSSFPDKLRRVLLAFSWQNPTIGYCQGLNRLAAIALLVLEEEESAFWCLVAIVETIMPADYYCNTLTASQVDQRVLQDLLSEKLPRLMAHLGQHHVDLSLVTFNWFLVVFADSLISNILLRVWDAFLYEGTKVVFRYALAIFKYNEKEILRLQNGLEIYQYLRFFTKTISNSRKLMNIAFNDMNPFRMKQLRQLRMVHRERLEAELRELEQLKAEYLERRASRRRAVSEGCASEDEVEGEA
UniProt Q9BQ70: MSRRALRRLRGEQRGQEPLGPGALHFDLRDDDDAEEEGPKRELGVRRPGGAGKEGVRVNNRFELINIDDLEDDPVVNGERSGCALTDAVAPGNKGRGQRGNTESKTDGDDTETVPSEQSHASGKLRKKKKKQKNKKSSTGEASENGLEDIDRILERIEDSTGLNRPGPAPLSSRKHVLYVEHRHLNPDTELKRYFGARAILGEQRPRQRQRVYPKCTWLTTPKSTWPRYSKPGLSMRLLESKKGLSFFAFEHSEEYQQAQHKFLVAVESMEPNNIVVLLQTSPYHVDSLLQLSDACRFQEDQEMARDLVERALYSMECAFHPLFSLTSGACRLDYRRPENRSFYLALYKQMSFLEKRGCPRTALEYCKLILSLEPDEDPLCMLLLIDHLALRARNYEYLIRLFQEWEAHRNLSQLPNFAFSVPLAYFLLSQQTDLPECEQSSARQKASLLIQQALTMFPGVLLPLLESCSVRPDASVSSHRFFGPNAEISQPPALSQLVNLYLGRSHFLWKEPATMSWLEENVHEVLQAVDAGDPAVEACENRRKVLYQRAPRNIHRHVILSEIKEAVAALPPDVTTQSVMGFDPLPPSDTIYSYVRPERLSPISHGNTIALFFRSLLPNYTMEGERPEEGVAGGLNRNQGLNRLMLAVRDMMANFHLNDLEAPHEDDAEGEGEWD
UniProt Q7L2K0: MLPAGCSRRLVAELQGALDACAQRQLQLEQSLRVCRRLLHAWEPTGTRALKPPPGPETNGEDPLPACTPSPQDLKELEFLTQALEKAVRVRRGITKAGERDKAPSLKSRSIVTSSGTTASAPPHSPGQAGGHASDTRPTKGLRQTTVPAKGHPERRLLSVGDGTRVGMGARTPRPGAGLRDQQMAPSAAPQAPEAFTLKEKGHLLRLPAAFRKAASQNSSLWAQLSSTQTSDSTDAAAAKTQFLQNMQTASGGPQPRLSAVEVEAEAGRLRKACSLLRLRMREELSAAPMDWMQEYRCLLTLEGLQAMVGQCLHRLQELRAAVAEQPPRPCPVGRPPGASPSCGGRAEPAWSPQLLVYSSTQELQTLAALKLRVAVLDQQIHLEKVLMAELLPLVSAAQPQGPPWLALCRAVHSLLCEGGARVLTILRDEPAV
UniProt Q6ZT07: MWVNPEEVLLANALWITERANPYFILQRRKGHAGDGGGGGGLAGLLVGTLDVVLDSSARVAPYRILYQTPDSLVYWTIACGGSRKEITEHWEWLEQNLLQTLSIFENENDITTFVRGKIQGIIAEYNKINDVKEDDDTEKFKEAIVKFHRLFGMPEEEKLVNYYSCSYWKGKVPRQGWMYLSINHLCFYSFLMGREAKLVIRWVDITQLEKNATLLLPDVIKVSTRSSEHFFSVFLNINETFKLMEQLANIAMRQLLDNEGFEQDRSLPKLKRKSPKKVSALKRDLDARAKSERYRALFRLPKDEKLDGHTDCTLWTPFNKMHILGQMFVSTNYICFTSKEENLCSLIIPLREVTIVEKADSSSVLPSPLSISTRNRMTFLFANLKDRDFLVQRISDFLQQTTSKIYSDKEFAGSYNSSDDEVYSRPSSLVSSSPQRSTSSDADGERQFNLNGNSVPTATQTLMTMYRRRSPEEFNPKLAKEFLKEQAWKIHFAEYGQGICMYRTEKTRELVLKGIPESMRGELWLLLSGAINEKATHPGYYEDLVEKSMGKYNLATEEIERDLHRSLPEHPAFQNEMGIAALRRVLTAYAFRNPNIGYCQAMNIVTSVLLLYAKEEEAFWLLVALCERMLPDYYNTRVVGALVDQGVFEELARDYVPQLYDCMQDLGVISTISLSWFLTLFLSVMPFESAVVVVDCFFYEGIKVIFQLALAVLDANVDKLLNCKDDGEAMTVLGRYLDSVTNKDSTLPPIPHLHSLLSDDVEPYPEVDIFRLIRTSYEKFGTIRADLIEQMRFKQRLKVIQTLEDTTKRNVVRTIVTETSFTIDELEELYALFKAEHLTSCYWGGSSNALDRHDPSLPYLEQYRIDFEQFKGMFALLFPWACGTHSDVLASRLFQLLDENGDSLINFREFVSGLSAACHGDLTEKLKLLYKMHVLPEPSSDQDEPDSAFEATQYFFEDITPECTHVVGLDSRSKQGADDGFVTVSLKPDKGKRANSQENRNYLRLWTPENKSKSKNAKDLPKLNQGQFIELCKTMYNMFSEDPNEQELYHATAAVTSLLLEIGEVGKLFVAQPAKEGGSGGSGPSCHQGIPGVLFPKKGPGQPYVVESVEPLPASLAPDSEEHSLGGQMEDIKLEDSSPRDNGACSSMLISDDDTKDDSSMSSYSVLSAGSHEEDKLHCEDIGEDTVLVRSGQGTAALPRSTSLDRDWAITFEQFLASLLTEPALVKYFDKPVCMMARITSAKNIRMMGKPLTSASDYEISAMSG
UniProt Q8IYN2: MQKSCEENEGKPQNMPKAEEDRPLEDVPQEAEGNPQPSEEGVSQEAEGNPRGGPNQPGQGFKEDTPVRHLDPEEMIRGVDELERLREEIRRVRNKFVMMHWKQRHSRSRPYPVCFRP
UniProt Q13488, whole entry, looked up: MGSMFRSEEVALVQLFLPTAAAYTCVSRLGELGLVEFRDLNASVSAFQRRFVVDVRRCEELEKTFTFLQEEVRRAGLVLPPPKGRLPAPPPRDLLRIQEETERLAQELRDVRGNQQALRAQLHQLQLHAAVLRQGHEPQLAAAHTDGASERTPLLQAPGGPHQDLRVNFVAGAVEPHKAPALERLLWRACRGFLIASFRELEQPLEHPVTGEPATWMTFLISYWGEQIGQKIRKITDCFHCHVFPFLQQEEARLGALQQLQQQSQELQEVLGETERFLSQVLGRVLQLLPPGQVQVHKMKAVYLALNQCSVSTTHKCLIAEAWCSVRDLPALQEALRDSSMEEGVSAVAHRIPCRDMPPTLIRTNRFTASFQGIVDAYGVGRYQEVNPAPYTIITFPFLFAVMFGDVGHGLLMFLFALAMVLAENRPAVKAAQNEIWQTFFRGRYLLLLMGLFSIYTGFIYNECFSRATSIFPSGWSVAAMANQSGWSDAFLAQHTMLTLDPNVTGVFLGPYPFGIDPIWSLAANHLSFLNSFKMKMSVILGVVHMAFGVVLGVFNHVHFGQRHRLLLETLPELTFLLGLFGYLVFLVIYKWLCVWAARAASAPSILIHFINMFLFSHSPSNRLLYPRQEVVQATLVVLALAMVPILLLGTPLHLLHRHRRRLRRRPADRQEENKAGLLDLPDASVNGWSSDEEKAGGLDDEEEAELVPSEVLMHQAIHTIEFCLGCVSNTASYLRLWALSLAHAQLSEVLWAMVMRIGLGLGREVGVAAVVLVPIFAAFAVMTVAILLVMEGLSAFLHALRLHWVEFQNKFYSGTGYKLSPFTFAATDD
UniProt Q9H5L6: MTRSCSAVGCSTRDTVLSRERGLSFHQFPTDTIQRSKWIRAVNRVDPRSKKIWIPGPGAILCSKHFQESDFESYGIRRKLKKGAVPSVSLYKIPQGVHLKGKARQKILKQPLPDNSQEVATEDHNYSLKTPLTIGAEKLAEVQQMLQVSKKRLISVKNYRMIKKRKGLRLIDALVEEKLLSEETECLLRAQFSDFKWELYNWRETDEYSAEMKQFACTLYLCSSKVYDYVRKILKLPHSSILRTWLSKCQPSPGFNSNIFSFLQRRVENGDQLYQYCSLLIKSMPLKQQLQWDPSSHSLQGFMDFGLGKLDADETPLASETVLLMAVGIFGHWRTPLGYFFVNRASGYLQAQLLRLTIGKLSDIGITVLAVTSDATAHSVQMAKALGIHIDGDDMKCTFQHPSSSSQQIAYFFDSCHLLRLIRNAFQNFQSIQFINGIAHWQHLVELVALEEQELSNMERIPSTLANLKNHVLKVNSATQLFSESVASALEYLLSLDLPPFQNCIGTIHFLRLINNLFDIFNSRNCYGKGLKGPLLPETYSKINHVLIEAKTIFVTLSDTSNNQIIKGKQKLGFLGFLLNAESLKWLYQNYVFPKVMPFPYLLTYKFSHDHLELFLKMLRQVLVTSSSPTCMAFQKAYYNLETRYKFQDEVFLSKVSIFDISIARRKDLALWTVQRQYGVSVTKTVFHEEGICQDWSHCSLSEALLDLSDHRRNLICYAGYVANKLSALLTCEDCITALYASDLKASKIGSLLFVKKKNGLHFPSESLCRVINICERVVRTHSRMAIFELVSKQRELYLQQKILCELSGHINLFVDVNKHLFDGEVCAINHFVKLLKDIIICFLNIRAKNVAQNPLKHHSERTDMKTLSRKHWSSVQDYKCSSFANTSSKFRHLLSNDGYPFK
UniProt Q8N9U0: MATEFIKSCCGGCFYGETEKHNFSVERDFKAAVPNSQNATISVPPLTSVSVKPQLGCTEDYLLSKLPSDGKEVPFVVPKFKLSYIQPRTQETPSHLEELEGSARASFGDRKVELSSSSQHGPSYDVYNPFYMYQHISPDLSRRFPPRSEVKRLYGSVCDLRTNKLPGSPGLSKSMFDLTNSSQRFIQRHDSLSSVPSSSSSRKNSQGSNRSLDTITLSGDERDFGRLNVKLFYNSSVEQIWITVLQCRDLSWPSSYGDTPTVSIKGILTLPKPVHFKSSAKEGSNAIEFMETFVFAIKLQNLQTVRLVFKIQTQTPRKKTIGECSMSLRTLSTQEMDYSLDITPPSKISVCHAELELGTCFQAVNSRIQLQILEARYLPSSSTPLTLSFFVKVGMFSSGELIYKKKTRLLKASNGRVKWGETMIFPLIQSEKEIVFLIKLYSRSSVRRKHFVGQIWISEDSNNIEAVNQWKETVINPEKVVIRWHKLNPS
UniProt Q04726: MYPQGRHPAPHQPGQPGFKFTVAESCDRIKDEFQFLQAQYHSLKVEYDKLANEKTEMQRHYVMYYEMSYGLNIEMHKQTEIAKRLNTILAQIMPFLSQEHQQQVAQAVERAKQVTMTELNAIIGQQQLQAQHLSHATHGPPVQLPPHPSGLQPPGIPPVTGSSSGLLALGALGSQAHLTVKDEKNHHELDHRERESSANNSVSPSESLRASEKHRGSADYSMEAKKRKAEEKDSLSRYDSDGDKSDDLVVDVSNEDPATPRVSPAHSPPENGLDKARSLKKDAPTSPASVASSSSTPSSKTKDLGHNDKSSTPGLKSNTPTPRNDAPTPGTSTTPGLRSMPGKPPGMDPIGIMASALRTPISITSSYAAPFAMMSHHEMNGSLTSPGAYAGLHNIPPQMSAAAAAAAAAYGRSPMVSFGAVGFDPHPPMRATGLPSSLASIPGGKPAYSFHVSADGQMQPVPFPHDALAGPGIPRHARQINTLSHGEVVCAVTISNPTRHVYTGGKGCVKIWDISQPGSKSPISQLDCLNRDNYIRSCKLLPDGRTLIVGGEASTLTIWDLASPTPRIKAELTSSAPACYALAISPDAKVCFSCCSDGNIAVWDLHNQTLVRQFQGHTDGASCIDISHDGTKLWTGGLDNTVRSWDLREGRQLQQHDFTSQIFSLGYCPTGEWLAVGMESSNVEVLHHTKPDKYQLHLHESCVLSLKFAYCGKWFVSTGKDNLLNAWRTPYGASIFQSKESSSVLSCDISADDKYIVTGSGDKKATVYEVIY
UniProt Q15170: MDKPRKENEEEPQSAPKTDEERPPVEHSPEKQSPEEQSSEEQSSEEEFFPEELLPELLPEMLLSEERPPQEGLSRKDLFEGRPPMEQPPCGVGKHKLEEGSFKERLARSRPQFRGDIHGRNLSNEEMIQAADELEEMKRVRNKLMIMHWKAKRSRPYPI

Key:
Test in all cases: log2 fold change, soluble protein after heating vs DMSO (PISA); higher = thermal stabilisation; K562 cells, 10 uM, 30 min; active = over 0.2 and 3.5 SD of the protein, either way, in both replicates (recomputed)
[1] = compound: NC(=O)Nc1cc(-c2cccc(F)c2)sc1C(=O)N[C@H]1CCCNC1
Procedure, shortened: (§1)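 Soluble protein was quantified by TMTpro 16plex LC-MS/MS after channel sums were equalised. It was obtained as the supernatant after 21,000xg for 90 min from pooled aliquots of K562 cells (2×10^6 cells/mL, 10 μM compound, 30 min) heated for 3 min across 48°C-58°C and extracted in PBS with 0.5% NP-40 at 4°C. Thermal stability values are relative to control samples and come from duplicates. They are given as log2 fold changes.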

[2] = compound: NCC(=O)Nc1ccc(-n2nc(C(F)(F)F)cc2-c2ccc3c(ccc4ccccc43)c2)cc1
Procedure, shortened: as §1

[3] = compound: Nc1ccccc1NC(=O)c1ccc(CNC(=O)OCc2cccnc2)cc1 [entinostat]
Procedure, shortened: as §1

[4] = compound: O=C(CCCCCCC(=O)Nc1ccccc1)NO [vorinostat]
Procedure, shortened: as §1

[5] = compound: O=C1NC(=O)C(c2cnc3ccccn23)=C1c1cn2c3c(cc(F)cc13)CN(C(=O)N1CCCCC1)CC2
Procedure, shortened: as §1

[6] = compound: NC(=O)c1cnc(N[C@@H]2CCCC[C@@H]2N)nc1Nc1cccc(-n2nccn2)c1
Procedure, shortened: as §1

[7] = compound: NC1(c2ccc(-c3nc4ccn5c(=O)[nH]nc5c4cc3-c3ccccc3)cc2)CCC1
Procedure, shortened: as §1

[8] = compound: O=C(O)c1ccc2c(c1)nc(Nc1cccc(Cl)c1)c1ccncc12 [silmitasertib]
Procedure, shortened: as §1

[9] = compound: O=C(CCCCCCNC(=O)c1cnc(N(c2ccccc2)c2ccccc2Cl)nc1)NO [citarinostat]
Procedure, shortened: as §1

[10] = compound: c1cc(OCCN2CCCCC2)cc(-c2n[nH]c3ccc(-c4nnc[nH]4)cc23)c1
Procedure, shortened: as §1

[11] = compound: c1cn2cc(-c3ccc4cn[nH]c4c3)nc(Nc3ccc(N4CCOCC4)cc3)c2n1 [entospletinib]
Procedure, shortened: as §1

Measured: log2 fold change

TIFA (UniProt Q96CG3)
inactive: [1] -0.062 | [2] 0.158 | [3] -0.093 | [4] -0.024 | [5] -0.036

TEX30 (UniProt Q5JUR7)
inactive: [6] -0.101 | [7] -0.097 | [2] -0.1 | [4] 0.121 | [8] 0.073 | [5] -0.04

TCEAL4 isoform 2 (UniProt Q96EI5)
inactive: [2] 0.175 | [4] -0.119 | [9] 0.057 | [5] -0.039 | [10] 0.017 | [11] -0.044

TBC1D25 (UniProt Q3MII6)
inactive: [2] -0.14

Reprinted from above (two entries):
TIFA (UniProt Q96CG3)
inactive: [1] -0.062 | [2] 0.158 | [3] -0.093 | [4] -0.024 | [5] -0.036

TEX30 (UniProt Q5JUR7)
inactive: [6] -0.101 | [7] -0.097 | [2] -0.1 | [4] 0.121 | [8] 0.073 | [5] -0.04

More records

TBC1D2 (UniProt Q9BYX2)
inactive: [6] -0.078 | [7] -0.181 | [4] -0.022 | [9] -0.026 | [8] 0.26 | [5] 0.058 | [10] -0.202

TFE3 (UniProt P19532)
inactive: [1] 0.119 | [3] 0.131 | [5] -0.136

TCF25 (UniProt Q9BQ70)
inactive: [6] 0.083 | [7] 0.096 | [2] 0.153 | [4] 0.133 | [8] -0.059 | [5] -0.122

TFAP4 (UniProt Q01664)
inactive: [2] -0.005 | [4] 0.044 | [9] 0.18 | [10] 0.025 | [11] -0.101

THTPA (UniProt Q9BU02)
inactive: [6] 0.039 | [7] -0.051 | [2] -0.009 | [9] 0.048 | [8] 0.07 | [10] -0.173 | [11] -0.104

TFCP2 (UniProt Q12800)
inactive: [1] 0.152 | [3] -0.127 | [4] 0.015 | [9] -0.007 | [5] 0.163 | [10] -0.143 | [11] 0.044

TCF20 (UniProt Q9UGU0)
inactive: [4] 0.098 | [5] 0.138

TEX10 (UniProt Q9NXF1)
inactive: [1] 0.222 | [3] -0.179 | [4] 0.025 | [9] -0.539 | [10] -0.401 | [11] 0.518

TCP11L1 (UniProt Q9NUJ3)
inactive: [6] -0.454 | [7] -0.23 | [9] -0.001 | [8] 0.059 | [10] 0.229 | [11] -0.057

TGM2 (UniProt A2A299)
inactive: [6] -0.153 | [7] 0.03 | [2] -0.323 | [8] 0.262

TFIP11 (UniProt Q9UBB9)
inactive: [9] 0.008 | [10] -0.166 | [11] 0.114

THEMIS2 (UniProt Q5TEJ8)
inactive: [4] 0.071 | [5] 0.152

TENM4 (UniProt Q6N022)
inactive: [4] 0.123 | [5] -0.019

TEDC2 (UniProt Q7L2K0)
inactive: [6] 0.059

TDRD7 (UniProt Q8NHU6)
inactive: [6] -0.645 | [7] -0.135 | [2] -0.114 | [4] -0.09 | [9] -0.163 | [8] 0.167 | [5] 0.35 | [10] -0.045 | [11] -0.107

TET2 (UniProt Q6N021)
inactive: [7] 0.557 | [9] -0.369 | [8] -0.102 | [10] 0.06 | [11] 0.138

TBC1D9 (UniProt Q6ZT07)
inactive: [2] 0.008

TBCK (UniProt Q8TEA7)
inactive: [6] -0.176 | [4] -0.126

TCEAL8 (UniProt Q8IYN2)
inactive: [7] 0.178 | [4] 0.399 | [8] 0.155

TCEAL9 (UniProt Q9UHQ7)
inactive: [1] -0.073 | [3] 0.201 | [5] -0.005

TCF3 isoform 2 (UniProt P15923)
inactive: [6] -0.033 | [2] -0.035 | [4] 0.036 | [9] 0.12 | [10] 0.014 | [11] -0.223

TCF4 isoform 3 (UniProt P15884)
inactive: [4] -0.028

TCIRG1 (UniProt Q13488)
inactive: [6] -0.338 | [4] 0.001 | [9] 0.072 | [5] 0.111 | [10] 0.155 | [11] 0.089

THAP9 (UniProt Q9H5L6)
inactive: [6] 0.021 | [7] 0.024 | [8] 0.049

TCAF2 (UniProt A6NFQ2)
inactive: [9] -0.086 | [5] 0.071 | [10] -0.03 | [11] 0.358

THAP12 (UniProt O43422)
inactive: [4] -0.2

TBP (UniProt P20226)
inactive: [6] 0.095 | [7] 0.015 | [2] 0.033 | [9] 0.013 | [8] 0.183 | [5] -0.025 | [10] -0.041

TC2N (UniProt Q8N9U0)
inactive: [6] 0.015 | [7] -0.067 | [2] -0.13 | [8] -0.186

TDRD3 isoform 3 (UniProt Q9H7E2)
inactive: [7] 0.022 | [2] 0.135 | [8] 0.167 | [5] 0.193

TCTN3 (UniProt Q6NUS6)
inactive: [1] -0.133 | [3] -0.072 | [5] 0.006

TLE3 (UniProt Q04726)
inactive: [9] 0.023 | [10] 0.144 | [11] -0.064

TCEAL1 isoform 2 (UniProt Q15170)
inactive: [1] -0.038 | [2] 0.268 | [3] 0.046 | [4] -0.091
